In this assay the target is Hsp90. Briefly: co-IP with anti-Hsp90 antibody (discussion).

These are yes or no findings as the source states them, for the method shown. In cells and extracts the contact can be indirect. Binding can be weak; no strength is given.

B1: MOP4 (protein)
chain: MDEDEKDRAKRASRNKSEKKRRDQFNVLIKELSSMLPGNTRKMDKTTVLEEVIGFLQKHNEVSAQTEICDIQQDWKPSFLSNEEFTQLMLEALDGFIIAVTTDGSIIYVSDSITPLLGHLPSDVMDQNLLNFLPEQEHSEVYKILSSHMLVTDSPSPEYLKSDGDLEFYCHLLRGSLNPKEFPTYEYIKFVGNFRSYNNVPSPSCNGFDNTLSRPCRVPLGKEVCFIATVRLATPQFLKEMCIVDEPLEEFTSRHSLEWKFLFLDHRAPPIIGYLPFEVLGTSGYDYYHIDDLELLARCHQHLMQFGKGKSCCYRFLTKGQQWIWLQTHYYITYHQWNSKPEFIVCTHSVVSYADVRVERRQELALEDPPSEALHSSALKDKGSSLEPRQHFNALDVGASGLNTSHSPSASSRSSHKSSHTAMSEPTSTPTKLMAEASTPALPRSATLPQELPVPGLSQAATMPAPLPSPSSCDLTQQLLPQTVLQSTPAPMAQFSAQFSMFQTIKDQLEQRTRILQANIRWQQEELHKIQEQLCLVQDSNVQMFLQQPAVSLSFSSTQRPEAQQQLQQRSAAVTQPQLGAGPQLPGQISSAQVTSQHLLRESSVISTQGPKPMRSSQLMQSSGRS
For B1, the binding result is “binds”.

For the origin of these results see patent publication US7105647.
